US20110275102A1
These are yes or no findings as the source states them, for the method shown. Some binding calls cover weakened binding; strength is not graded here.

Chains of the proteins cited; added tags and fusions are not shown. Lines headed by an entry give the natural chain unless they say otherwise; changes in a name come on top.
UniProt P31749: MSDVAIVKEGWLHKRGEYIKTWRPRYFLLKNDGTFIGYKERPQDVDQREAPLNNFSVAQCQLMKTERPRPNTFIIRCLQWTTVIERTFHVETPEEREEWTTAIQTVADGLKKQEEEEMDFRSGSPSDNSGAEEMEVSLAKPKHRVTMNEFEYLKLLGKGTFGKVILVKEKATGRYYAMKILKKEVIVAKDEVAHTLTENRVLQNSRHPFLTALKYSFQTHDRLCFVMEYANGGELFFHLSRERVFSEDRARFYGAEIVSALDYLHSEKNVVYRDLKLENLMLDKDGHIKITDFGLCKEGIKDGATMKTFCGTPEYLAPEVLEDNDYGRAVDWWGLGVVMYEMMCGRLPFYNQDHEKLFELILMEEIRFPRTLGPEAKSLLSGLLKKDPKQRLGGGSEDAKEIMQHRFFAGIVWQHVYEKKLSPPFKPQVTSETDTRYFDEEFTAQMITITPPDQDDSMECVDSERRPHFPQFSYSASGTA

Molecular target: GST-IMPDH: GST fused to the complete human IMPDH type II (pGEX-IMPDH) (human) (UniProt P12268)
Assay: in vitro binding to GST fusion on glutathione-agarose beads, Western blot with RACα antiserum

With “full-length human RACα produced in the baculovirus system (Sf9 cells) (from UniProt P31749 1-480) (enzyme)” the binding was “binds”.
